Source: PubChem BioAssay AID248 (DTP/NCI, 2004)
The list shows only some results of the screen, not a fair sample: it gathers tests that were run many times, whatever their T/C, doses with no T/C, and many T/C values between a quarter and a half above the control. Further doses and runs are listed elsewhere. T/C: endpoint of the treated group in % of that of the vehicle group. Some doses have a count of surviving animals in place of a T/C: the source files T/C as zero there, which appears to mark a toxic dose or a test without result, not a measured value. Some survivor counts are full or nearly so, which does not show that the dose was tolerated: survival well below the control is almost never listed, so the zero probably covers shortened survival too. Survivors were counted at the toxicity check, usually on the fifth day, unless a day is given; later deaths do not show. Schedule codes are those of the source, read here as Q, the interval in days (D) or hours (H), X, the number of doses. For survival time, this PubChem deposit counts one and a half times the control or more as active, and values a quarter to a half above the control carry no call in these data; other NCI protocols may use other cut-offs. Some doses were run more than once; their values stand side by side, smallest first. Counts like (3×) count equal records among those shown. Some schedules carry Z or #; the key to these is not given. Some T/C values carry the count of animals alive at the toxicity check (mostly the fifth day); where none is given, no animal had died by that day.

System: L1210 leukemia ip in BDF1 mice, survival T/C
Assay: NCI In Vivo Anticancer Drug Screen. Data for tumor model L1210 Leukemia (intraperitoneal) in B6D2F1 (BDF1) mice
Details: higher T/C = longer survival
[1] = T/C endpoint: mean survival time, dose: 200.0 mg/kg/injection, schedule: Q04DX003 (ip), vehicle: saline with Tween-80
[2] = T/C endpoint: mean survival time, dose: 400.0 mg/kg/injection, schedule: Q04DX003 (ip), vehicle: saline with Tween-80
[3] = T/C endpoint: mean survival time, dose: 200.0 mg/kg/injection, schedule: Q01DX001 (ip), vehicle: saline with Tween-80
[4] = T/C endpoint: mean survival time, dose: 400.0 mg/kg/injection, schedule: Q01DX009 (ip), vehicle: Klucel (hydroxypropylcellulose) (HPC)

Compound: CC1CCC(=C(c2ccccc2)c2ccccc2)C(C)N1C (configuration not stated)
- survivor count [1]: 6 of 6
- survivor count [2]: 0 of 6

Compound: CC1CCC(NC(=O)N(CCCl)N=O)CC1 (configuration not stated)
- T/C (T/C endpoint: mean survival time, dose: 1.7 mg/kg/injection, schedule: Q01DX009 (ip), vehicle: saline with Tween-80): 126 and 128 % of control
- T/C (T/C endpoint: mean survival time, dose: 2.5 mg/kg/injection, schedule: Q01DX Z (ip), vehicle: Klucel (hydroxypropylcellulose) (HPC)): 135 % of control [5 of 6 alive]
- T/C (T/C endpoint: mean survival time, dose: 3.3 mg/kg/injection, schedule: Q01DX009 (ip), vehicle: saline with Tween-80): 145, 153, 155, 158 % of control
- T/C (T/C endpoint: mean survival time, dose: 4.0 mg/kg/injection, schedule: Q01DX001 (ip), vehicle: other): 132 % of control
- T/C (T/C endpoint: mean survival time, dose: 4.4 mg/kg/injection, schedule: Q04DX004 (ip), vehicle: saline with Tween-80): 130 % of control
- T/C (T/C endpoint: mean survival time, dose: 5.0 mg/kg/injection, schedule: Q01DX Z (ip), vehicle: Klucel (hydroxypropylcellulose) (HPC)): 133 % of control
- T/C (T/C endpoint: mean survival time, dose: 6.25 mg/kg/injection, schedule: Q01DX001 (ip), vehicle: other): 128 % of control
- T/C (T/C endpoint: mean survival time, dose: 6.5 mg/kg/injection, schedule: Q01DX009 (ip), vehicle: saline with Tween-80): 185, 228, 229, 252 % of control
- T/C (T/C endpoint: mean survival time, dose: 8.0 mg/kg/injection, schedule: Q04DX002 (ip), vehicle: saline with Tween-80): 131, 137, 138 % of control (2×)
- survivor count (T/C endpoint: mean survival time, dose: 10.0 mg/kg/injection, schedule: Q01DX001 (ip), vehicle: saline): 10 of 10
- T/C (T/C endpoint: mean survival time, dose: 10.0 mg/kg/injection, schedule: Q01DX001 (iv), vehicle: Klucel (hydroxypropylcellulose) (HPC)): 138 % of control
- T/C (T/C endpoint: mean survival time, dose: 10.0 mg/kg/injection, schedule: Q01DX001 (iv), vehicle: saline): 142 % of control
- T/C (T/C endpoint: mean survival time, dose: 13.0 mg/kg/injection, schedule: Q01DX009 (ip), vehicle: saline with Tween-80): 173, 297, 306, 313 % of control
- T/C (T/C endpoint: mean survival time, dose: 16.0 mg/kg/injection, schedule: Q01DX001 (ip), vehicle: saline with Tween-80, evaluated on day 5): 142 % of control
- T/C (T/C endpoint: mean survival time, dose: 16.0 mg/kg/injection, schedule: Q01DX001 (ip), vehicle: saline with Tween-80, evaluated on day 60): 142 % of control
- T/C (T/C endpoint: mean survival time, dose: 16.0 mg/kg/injection, schedule: Q04DX002 (ip), vehicle: saline with Tween-80): 166, 196, 202, 213 % of control
- T/C (T/C endpoint: mean survival time, dose: 20.0 mg/kg/injection, schedule: Q01DX Z (ip), vehicle: Klucel (hydroxypropylcellulose) (HPC)): 125 % of control
- T/C (T/C endpoint: mean survival time, dose: 25.0 mg/kg/injection, schedule: Q01DX001 (ip), vehicle: saline with Tween-80): 127 % of control
- T/C (T/C endpoint: mean survival time, dose: 32.0 mg/kg/injection, schedule: Q04DX002 (ip), vehicle: saline with Tween-80): 238, 295, 310, 313 % of control
- survivor count (T/C endpoint: mean survival time, dose: 33.0 mg/kg/injection, schedule: Q01DX001 (ip), vehicle: clinical formulation): 4 of 6
- survivor count (T/C endpoint: mean survival time, dose: 33.0 mg/kg/injection, schedule: Q01DX001 (iv), vehicle: clinical formulation): 3 of 6
- T/C (T/C endpoint: mean survival time, dose: 36.0 mg/kg/injection, schedule: Q01DX001 (ip), vehicle: other, evaluated on day 60): 652, 676, 730 % of control
- T/C (T/C endpoint: mean survival time, dose: 36.0 mg/kg/injection, schedule: Q01DX001 (ip), vehicle: other, run until all animals had died): 271 % of control
- survivor count (T/C endpoint: mean survival time, dose: 40.0 mg/kg/injection, schedule: Q01DX001 (ip), vehicle: saline): 10 of 10
- T/C (T/C endpoint: mean survival time, dose: 50.0 mg/kg/injection, schedule: Q01DX001 (ip), vehicle: saline with Tween-80, evaluated on day 5): 92 % of control
- T/C (T/C endpoint: mean survival time, dose: 50.0 mg/kg/injection, schedule: Q01DX001 (ip), vehicle: saline with Tween-80, evaluated on day 30): 131, 294, 308, 329 % of control
- T/C (T/C endpoint: mean survival time, dose: 50.0 mg/kg/injection, schedule: Q01DX001 (ip), vehicle: saline with Tween-80, evaluated on day 60): 92 % of control
- T/C (T/C endpoint: mean survival time, dose: 54.0 mg/kg/injection, schedule: Q01DX001 (ip), vehicle: other, evaluated on day 60): 602, 689, 701 % of control
- T/C (T/C endpoint: mean survival time, dose: 54.0 mg/kg/injection, schedule: Q01DX001 (ip), vehicle: other, run until all animals had died): 241 % of control
- survivor count (T/C endpoint: mean survival time, dose: 75.0 mg/kg/injection, schedule: Q01DX001 (ip), vehicle: clinical formulation): 0 of 6
- T/C (T/C endpoint: mean survival time, dose: 100.0 mg/kg/injection, schedule: Q01DX001 (ip), vehicle: saline with Tween-80, evaluated on day 5): 72 % of control
- T/C (T/C endpoint: mean survival time, dose: 100.0 mg/kg/injection, schedule: Q01DX001 (ip), vehicle: saline with Tween-80, evaluated on day 30): 130, 137, 139, 142 % of control
- survivor count (T/C endpoint: mean survival time, dose: 100.0 mg/kg/injection, schedule: Q01DX001 (ip), vehicle: saline with Tween-80): 10 of 10
- survivor count (T/C endpoint: mean survival time, dose: 125.0 mg/kg/injection, schedule: Q01DX001 (ip), vehicle: other): 6 of 6
- T/C [3]: 90, 102, 110 % of control
- survivor count [3]: 10 of 10
- survivor count (T/C endpoint: mean survival time, dose: 250.0 mg/kg/injection, schedule: Q01DX001 (ip), vehicle: other): 4 of 6
- survivor count (T/C endpoint: mean survival time, dose: 400.0 mg/kg/injection, schedule: Q01DX001 (ip), vehicle: saline with Tween-80): 9 of 10
- survivor count (T/C endpoint: mean survival time, dose: 500.0 mg/kg/injection, schedule: Q01DX001 (ip), vehicle: other): 0 of 6
- survivor count (T/C endpoint: mean survival time, dose: 750.0 mg/kg/injection, schedule: Q01DX001 (ip), vehicle: other): 0 of 6
- survivor count (T/C endpoint: mean survival time, dose: 1000.0 mg/kg/injection, schedule: Q01DX001 (ip), vehicle: other): 0 of 6
- T/C (T/C endpoint: median survival time, dose: 3.75 mg/kg/injection, schedule: Q01DX009 (ip), vehicle: saline): 148 % of control [7 of 8 alive]
- T/C (T/C endpoint: median survival time, dose: 25.0 mg/kg/injection, schedule: Q01DX001 (ip), vehicle: saline with Tween-80, evaluated on day 7): 131 % of control
- T/C (T/C endpoint: median survival time, dose: 25.0 mg/kg/injection, schedule: Q01DX001 (ip), vehicle: saline with Tween-80, evaluated on day 50): 131 % of control
- survivor count (T/C endpoint: median survival time, dose: 30.0 mg/kg/injection, schedule: Q01DX009 (ip), vehicle: saline): 8 of 8
- T/C (T/C endpoint: median survival time, dose: 50.0 mg/kg/injection, schedule: Q01DX001 (ip), vehicle: saline with Tween-80, evaluated on day 7): 137 % of control
- T/C (T/C endpoint: median survival time, dose: 50.0 mg/kg/injection, schedule: Q01DX001 (ip), vehicle: saline with Tween-80, evaluated on day 50): 137 % of control [7 of 8 alive]
- T/C (T/C endpoint: median survival time, dose: 200.0 mg/kg/injection, schedule: Q01DX001 (ip), vehicle: saline with Tween-80, evaluated on day 7): 137 % of control
- T/C (T/C endpoint: median survival time, dose: 200.0 mg/kg/injection, schedule: Q01DX001 (ip), vehicle: saline with Tween-80, evaluated on day 50): 137 % of control

Compound: Cc1nccn1C(C)c1ccccc1 (configuration not stated)
- survivor count (T/C endpoint: mean survival time, dose: 100.0 mg/kg/injection, schedule: Q04DX003 (ip), vehicle: saline): 0 of 6
- survivor count (T/C endpoint: mean survival time, dose: 200.0 mg/kg/injection, schedule: Q04DX003 (ip), vehicle: saline): 0 of 6
- survivor count (T/C endpoint: mean survival time, dose: 400.0 mg/kg/injection, schedule: Q04DX003 (ip), vehicle: saline): 0 of 6

Compound: CCc1ccc2ccc3c4ccccc4ccc3[n+]2c1
- survivor count (T/C endpoint: mean survival time, dose: 80.0 mg/kg/injection, schedule: Q01DX001 (ip), vehicle: saline): 6 of 6
- survivor count (T/C endpoint: mean survival time, dose: 100.0 mg/kg/injection, schedule: Q01DX001 (ip), vehicle: saline): 0 of 4
- survivor count (T/C endpoint: mean survival time, dose: 200.0 mg/kg/injection, schedule: Q01DX001 (ip), vehicle: saline): 0 of 4
- survivor count (T/C endpoint: mean survival time, dose: 400.0 mg/kg/injection, schedule: Q01DX001 (ip), vehicle: saline): 0 of 4

Compound: Cc1cc(N(CCCl)CCCl)ccc1C=Nc1ccccc1C(=O)O
- survivor count (T/C endpoint: mean survival time, dose: 800.0 mg/kg/injection, schedule: Q01DX001 (ip), vehicle: Klucel (hydroxypropylcellulose) (HPC)): 1 of 6

Compound: O=C1C=C(C(=O)O)CO1
- survivor count (T/C endpoint: mean survival time, dose: 200.0 mg/kg/injection, schedule: Q01DX009 (ip), vehicle: Klucel (hydroxypropylcellulose) (HPC)): 2 of 6
- survivor count [4]: 0 of 6

Compound: CCOC(=O)NC(=S)n1ncnc1N
- survivor count (T/C endpoint: mean survival time, dose: 55.0 mg/kg/injection, schedule: Q01DX009 (ip), vehicle: saline with Tween-80): 4 of 6
- survivor count (T/C endpoint: mean survival time, dose: 80.0 mg/kg/injection, schedule: Q01DX009 (ip), vehicle: saline with Tween-80): 0 of 6
- survivor count (T/C endpoint: mean survival time, dose: 100.0 mg/kg/injection, schedule: Q04DX003 (ip), vehicle: saline with Tween-80): 1 of 6
- survivor count [1]: 0 of 6
- survivor count [2]: 0 of 6

Compound: CO[C@H]1/C=C/O[C@@]2(C)Oc3c(C)c(O)c4c(O)c(c(/C=N/N5CCNCC5)c(O)c4c3C2=O)NC(=O)/C(C)=C\C=C\[C@H](C)[C@H](O)[C@@H](C)[C@@H](O)[C@@H](C)C(OC(C)=O)[C@@H]1C (some centres not stated)
- survivor count [4]: 2 of 6
